Publication doi:10.1101/2024.02.05.578926

By UniProt entry, the sequences of proteins in these tests, tags left out.
UniProt Q6P1X5: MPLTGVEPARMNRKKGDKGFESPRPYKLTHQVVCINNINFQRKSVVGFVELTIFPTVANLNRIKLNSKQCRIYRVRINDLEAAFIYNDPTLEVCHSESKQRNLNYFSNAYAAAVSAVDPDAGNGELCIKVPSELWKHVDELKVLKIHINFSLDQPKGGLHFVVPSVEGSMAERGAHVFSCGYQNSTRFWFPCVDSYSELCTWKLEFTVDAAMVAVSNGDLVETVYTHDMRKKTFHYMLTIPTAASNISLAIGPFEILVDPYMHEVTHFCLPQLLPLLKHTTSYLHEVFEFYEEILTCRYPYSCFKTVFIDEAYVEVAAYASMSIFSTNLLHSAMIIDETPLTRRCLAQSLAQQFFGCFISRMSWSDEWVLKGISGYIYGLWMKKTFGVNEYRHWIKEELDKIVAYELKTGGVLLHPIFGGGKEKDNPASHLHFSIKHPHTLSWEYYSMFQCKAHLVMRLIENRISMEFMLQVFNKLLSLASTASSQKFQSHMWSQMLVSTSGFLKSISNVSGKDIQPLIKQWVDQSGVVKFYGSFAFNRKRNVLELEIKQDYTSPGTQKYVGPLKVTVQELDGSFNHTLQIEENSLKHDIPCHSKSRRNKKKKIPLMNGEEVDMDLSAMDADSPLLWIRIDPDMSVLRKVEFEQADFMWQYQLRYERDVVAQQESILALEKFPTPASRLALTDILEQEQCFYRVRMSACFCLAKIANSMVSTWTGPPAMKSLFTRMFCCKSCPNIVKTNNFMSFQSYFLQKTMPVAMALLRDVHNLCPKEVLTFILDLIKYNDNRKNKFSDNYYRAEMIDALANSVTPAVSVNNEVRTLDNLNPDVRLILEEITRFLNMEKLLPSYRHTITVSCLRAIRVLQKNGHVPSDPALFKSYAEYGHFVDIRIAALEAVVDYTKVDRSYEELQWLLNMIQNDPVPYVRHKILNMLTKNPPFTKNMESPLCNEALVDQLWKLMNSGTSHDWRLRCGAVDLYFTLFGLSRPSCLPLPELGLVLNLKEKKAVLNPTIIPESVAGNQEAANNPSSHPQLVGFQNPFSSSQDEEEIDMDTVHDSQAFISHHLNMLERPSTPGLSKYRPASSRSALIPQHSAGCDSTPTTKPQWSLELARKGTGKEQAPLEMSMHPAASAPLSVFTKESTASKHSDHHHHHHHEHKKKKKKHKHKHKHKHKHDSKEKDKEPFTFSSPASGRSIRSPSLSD
UniProt P18583: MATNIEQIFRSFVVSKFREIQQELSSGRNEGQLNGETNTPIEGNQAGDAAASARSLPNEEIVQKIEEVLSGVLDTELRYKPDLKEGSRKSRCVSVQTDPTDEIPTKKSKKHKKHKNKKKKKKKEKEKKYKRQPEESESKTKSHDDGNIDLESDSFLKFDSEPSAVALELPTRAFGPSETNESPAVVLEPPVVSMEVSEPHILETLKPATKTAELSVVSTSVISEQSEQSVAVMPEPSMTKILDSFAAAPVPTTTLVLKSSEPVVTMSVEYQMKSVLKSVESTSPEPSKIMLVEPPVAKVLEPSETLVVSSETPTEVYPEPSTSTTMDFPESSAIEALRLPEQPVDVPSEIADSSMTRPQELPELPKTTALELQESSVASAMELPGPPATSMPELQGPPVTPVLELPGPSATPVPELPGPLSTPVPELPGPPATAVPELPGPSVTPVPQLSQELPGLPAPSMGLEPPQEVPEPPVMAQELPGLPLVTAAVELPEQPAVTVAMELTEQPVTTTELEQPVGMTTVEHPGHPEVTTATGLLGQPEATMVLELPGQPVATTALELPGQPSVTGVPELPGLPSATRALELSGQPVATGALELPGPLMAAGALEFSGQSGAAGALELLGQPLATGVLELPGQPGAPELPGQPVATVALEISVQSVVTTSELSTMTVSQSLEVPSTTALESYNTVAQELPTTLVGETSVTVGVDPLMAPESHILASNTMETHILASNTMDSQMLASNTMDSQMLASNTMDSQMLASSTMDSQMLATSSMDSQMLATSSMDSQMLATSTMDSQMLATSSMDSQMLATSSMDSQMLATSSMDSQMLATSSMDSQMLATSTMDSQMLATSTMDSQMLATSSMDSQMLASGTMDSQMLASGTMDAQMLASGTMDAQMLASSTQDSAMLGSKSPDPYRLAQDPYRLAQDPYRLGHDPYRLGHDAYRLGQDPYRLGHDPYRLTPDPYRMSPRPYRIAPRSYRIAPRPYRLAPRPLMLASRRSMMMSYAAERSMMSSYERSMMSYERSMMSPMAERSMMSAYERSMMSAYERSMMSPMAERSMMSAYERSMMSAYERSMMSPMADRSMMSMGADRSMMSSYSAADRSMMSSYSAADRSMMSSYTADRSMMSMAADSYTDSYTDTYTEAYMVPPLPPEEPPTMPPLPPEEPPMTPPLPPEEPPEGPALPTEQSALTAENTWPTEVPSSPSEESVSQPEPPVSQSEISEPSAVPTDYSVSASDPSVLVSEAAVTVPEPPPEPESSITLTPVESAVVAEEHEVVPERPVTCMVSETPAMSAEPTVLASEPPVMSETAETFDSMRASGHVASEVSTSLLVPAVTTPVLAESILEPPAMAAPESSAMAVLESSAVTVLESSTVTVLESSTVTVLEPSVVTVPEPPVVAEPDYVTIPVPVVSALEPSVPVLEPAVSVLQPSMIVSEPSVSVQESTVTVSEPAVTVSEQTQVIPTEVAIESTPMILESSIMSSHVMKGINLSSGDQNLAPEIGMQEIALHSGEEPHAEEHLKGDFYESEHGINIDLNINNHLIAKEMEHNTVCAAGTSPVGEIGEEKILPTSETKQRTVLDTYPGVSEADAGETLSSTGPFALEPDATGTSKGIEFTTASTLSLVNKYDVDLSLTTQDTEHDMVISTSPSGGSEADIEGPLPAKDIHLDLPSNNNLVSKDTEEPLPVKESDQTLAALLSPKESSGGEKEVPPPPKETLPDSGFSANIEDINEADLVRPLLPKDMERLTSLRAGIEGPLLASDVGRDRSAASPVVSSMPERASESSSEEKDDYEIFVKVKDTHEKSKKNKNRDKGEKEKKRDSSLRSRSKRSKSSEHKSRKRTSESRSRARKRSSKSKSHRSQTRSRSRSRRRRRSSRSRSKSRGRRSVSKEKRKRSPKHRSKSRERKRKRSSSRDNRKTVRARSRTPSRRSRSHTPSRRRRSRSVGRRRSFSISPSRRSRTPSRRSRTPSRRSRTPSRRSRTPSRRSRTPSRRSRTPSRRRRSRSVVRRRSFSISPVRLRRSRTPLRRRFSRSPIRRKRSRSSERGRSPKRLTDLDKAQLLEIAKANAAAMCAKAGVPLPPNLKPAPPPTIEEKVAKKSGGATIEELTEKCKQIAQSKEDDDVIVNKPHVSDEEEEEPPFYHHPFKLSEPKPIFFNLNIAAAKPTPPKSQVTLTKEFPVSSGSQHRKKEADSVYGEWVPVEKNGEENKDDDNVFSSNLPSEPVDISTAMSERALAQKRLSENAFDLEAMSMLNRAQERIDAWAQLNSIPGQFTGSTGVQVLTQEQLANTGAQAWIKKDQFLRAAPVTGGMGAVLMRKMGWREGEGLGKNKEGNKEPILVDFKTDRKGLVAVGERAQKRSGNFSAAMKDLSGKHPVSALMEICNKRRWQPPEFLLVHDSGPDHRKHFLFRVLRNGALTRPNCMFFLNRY
UniProt O15042: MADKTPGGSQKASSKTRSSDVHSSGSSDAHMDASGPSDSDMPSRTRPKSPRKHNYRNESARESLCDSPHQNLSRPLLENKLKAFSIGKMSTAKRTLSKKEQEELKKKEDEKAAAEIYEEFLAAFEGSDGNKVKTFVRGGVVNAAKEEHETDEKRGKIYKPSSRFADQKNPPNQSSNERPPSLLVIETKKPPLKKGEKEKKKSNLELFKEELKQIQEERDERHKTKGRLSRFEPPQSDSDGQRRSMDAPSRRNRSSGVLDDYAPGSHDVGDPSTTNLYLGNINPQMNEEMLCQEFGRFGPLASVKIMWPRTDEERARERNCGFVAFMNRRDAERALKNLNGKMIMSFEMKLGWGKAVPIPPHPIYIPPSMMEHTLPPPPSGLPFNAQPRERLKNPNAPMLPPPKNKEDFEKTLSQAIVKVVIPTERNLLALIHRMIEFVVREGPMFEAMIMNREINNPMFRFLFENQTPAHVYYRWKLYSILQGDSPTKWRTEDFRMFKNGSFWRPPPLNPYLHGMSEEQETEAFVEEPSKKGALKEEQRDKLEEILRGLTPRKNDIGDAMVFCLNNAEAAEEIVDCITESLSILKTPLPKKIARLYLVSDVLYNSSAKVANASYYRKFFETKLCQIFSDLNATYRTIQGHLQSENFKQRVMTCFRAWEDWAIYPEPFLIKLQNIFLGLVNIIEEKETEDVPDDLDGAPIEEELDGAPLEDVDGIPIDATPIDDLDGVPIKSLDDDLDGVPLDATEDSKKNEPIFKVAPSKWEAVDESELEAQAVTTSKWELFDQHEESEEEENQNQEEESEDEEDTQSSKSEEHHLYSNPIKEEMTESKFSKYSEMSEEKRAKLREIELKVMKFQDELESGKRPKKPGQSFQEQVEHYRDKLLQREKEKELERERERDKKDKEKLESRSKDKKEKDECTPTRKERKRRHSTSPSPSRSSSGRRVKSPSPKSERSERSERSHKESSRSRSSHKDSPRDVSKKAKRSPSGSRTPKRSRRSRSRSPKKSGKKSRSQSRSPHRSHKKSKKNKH

B1: RBM14 (protein, UniProt Q96PK6 1-669)
chain: MKIFVGNVDGADTTPEELAALFAPYGTVMSCAVMKQFAFVHMRENAGALRAIEALHGHELRPGRALVVEMSRPRPLNTWKIFVGNVSAACTSQELRSLFERRGRVIECDVVKDYAFVHMEKEADAKAAIAQLNGKEVKGKRINVELSTKGQKKGPGLAVQSGDKTKKPGAGDTAFPGTGGFSATFDYQQAFGNSTGGFDGQARQPTPPFFGRDRSPLRRSPPRASYVAPLTAQPATYRAQPSVSLGAAYRAQPSASLGVGYRTQPMTAQAASYRAQPSVSLGAPYRGQLASPSSQSAAASSLGPYGGAQPSASALSSYGGQAAAASSLNSYGAQGSSLASYGNQPSSYGAQAASSYGVRAAASSYNTQGAASSLGSYGAQAASYGAQSAASSLAYGAQAASYNAQPSASYNAQSAPYAAQQAASYSSQPAAYVAQPATAAAYASQPAAYAAQATTPMAGSYGAQPVVQTQLNSYGAQASMGLSGSYGAQSAAAATGSYGAAAAYGAQPSATLAAPYRTQSSASLAASYAAQQHPQAAASYRGQPGNAYDGAGQPSAAYLSMSQGAVANANSTPPPYERTRLSPPRASYDDPYKKAVAMSKRYGSDRRLAELSDYRRLSESQLSFRRSPTKSSLDYRRLPDAHSDYARYSGSYNDYLRAAQMHSGYQRRM
B2: XAB2 (protein, UniProt Q9HCS7 1-855)
chain: MVVMARLSRPERPDLVFEEEDLPYEEEIMRNQFSVKCWLRYIEFKQGAPKPRLNQLYERALKLLPCSYKLWYRYLKARRAQVKHRCVTDPAYEDVNNCHERAFVFMHKMPRLWLDYCQFLMDQGRVTHTRRTFDRALRALPITQHSRIWPLYLRFLRSHPLPETAVRGYRRFLKLSPESAEEYIEYLKSSDRLDEAAQRLATVVNDERFVSKAGKSNYQLWHELCDLISQNPDKVQSLNVDAIIRGGLTRFTDQLGKLWCSLADYYIRSGHFEKARDVYEEAIRTVMTVRDFTQVFDSYAQFEESMIAAKMETASELGREEEDDVDLELRLARFEQLISRRPLLLNSVLLRQNPHHVHEWHKRVALHQGRPREIINTYTEAVQTVDPFKATGKPHTLWVAFAKFYEDNGQLDDARVILEKATKVNFKQVDDLASVWCQCGELELRHENYDEALRLLRKATALPARRAEYFDGSEPVQNRVYKSLKVWSMLADLEESLGTFQSTKAVYDRILDLRIATPQIVINYAMFLEEHKYFEESFKAYERGISLFKWPNVSDIWSTYLTKFIARYGGRKLERARDLFEQALDGCPPKYAKTLYLLYAQLEEEWGLARHAMAVYERATRAVEPAQQYDMFNIYIKRAAEIYGVTHTRGIYQKAIEVLSDEHAREMCLRFADMECKLGEIDRARAIYSFCSQICDPRTTGAFWQTWKDFEVRHGNEDTIKEMLRIRRSVQATYNTQVNFMASQMLKVSGSATGTVSDLAPGQSGMDDMKLLEQRAEQLAAEAERDQPLRAQSKILFVRSDASREELAELAQQVNPEEIQLGEDEDEDEMDLEPNEVRLEQQSVPAAVFGSLKED
B3: SNRNP40 (protein, UniProt Q96DI7 1-357)
chain: MIEQQKRKGPELPLVPVKRQRHELLLGAGSGPGAGQQQATPGALLQAGPPRCSSLQAPIMLLSGHEGEVYCCKFHPNGSTLASAGFDRLILLWNVYGDCDNYATLKGHSGAVMELHYNTDGSMLFSASTDKTVAVWDSETGERVKRLKGHTSFVNSCYPARRGPQLVCTGSDDGTVKLWDIRKKAAIQTFQNTYQVLAVTFNDTSDQIISGGIDNDIKVWDLRQNKLTYTMRGHADSVTGLSLSSEGSYLLSNAMDNTVRVWDVRPFAPKERCVKIFQGNVHNFEKNLLRCSWSPDGSKIAAGSADRFVYVWDTTSRRILYKLPGHAGSINEVAFHPDEPIIISASSDKRLYMGEIQ

How the values were obtained:
[1] = target: SRRM2-tr0-GFP (human (endogenous in HAP1)) (UniProt Q9UQ35); test: affinity purification with mass spectrometry
miniTurbo–TAF2 (human) = miniTurbo–TAF2 (human) (UniProt Q6P1X5); test: proximity labelling
GFP–TAF2 (human) = GFP–TAF2 (human) (UniProt Q6P1X5); test: affinity purification with mass spectrometry
GFP-TAF2ΔIDR (human) = test: affinity purification with mass spectrometry

Row | Molecule | binding [1] | binding (miniTurbo–TAF2 (human)) | other results
1 | SON (from UniProt P18583 1-2426) | binds |  | 
2 | U2SURP (from UniProt O15042 1-1029) |  | binds | 
3 | TAF2 (endogenous, HAP1) (from UniProt Q6P1X5 1-1199) | binds |  | 
4 | B1 |  |  | binding (GFP–TAF2 (human)): binds; binding (GFP-TAF2ΔIDR (human)): binds
5 | B2 |  | binds | 
6 | B3 |  | binds | 

Results are given in words; binding and its absence hold for the method and conditions named. In cells and extracts the contact can be indirect. Here binding means that the protein was enriched with, or labelled near, the bait; the list need not be complete.
